Test [1] concerns the target FLAG-tagged wild type (WT) WWP1 (WW domain containing E3 ubiquitin protein ligase 1) (human) (UniProt Q9H0M0). Description: co-IP; HEK293T cells transfected with Flag-WWP1 or empty vector; lysates in Triton-NaCl extraction buffer (250 mM NaCl, 0.5% Triton-X-100, pH 7.5) precipitated overnight with anti-FLAG M2 affinity resin; blot with anti-TXNIP and anti-Flag.
The target of test [2] is Recombinant human WWP1 protein (human) (UniProt Q9H0M0). As to the kind of experiment: pull-down; recombinant WWP1 (300 ng) and recombinant TXNIP (300 ng) incubated overnight at 4 °C in 50 mM Tris-HCl pH 7.5, 150 mM NaCl, 0.1% NP-40, 1 mM EDTA; WWP1 precipitated with anti-WWP1 antibody on protein A beads; blot with anti-TXNIP; isotypic IgG as negative control; both purified.

Results are given in words; binding and its absence hold for the method and conditions named. For some assays here: In cells and extracts the contact can be indirect. Some results given as binding are weak or reduced against the parent protein; the word gives no strength.

B1: Thioredoxin-interacting protein (TXNIP), endogenous in HEK293T cells (protein, UniProt Q9H3M7-1 1-391)
chain: MVMFKKIKSFEVVFNDPEKVYGSGEKVAGRVIVEVCEVTRVKAVRILACGVAKVLWMQGSQQCKQTSEYLRYEDTLLLEDQPTGENEMVIMRPGNKYEYKFGFELPQGPLGTSFKGKYGCVDYWVKAFLDRPSQPTQETKKNFEVVDLVDVNTPDLMAPVSAKKEKKVSCMFIPDGRVSVSARIDRKGFCEGDEISIHADFENTCSRIVVPKAAIVARHTYLANGQTKVLTQKLSSVRGNHIISGTCASWRGKSLRVQKIRPSILGCNILRVEYSLLIYVSVPGSKKVILDLPLVIGSRSGLSSRTSSMASRTSSEMSWVDLNIPDTPEAPPCYMDVIPEDHRLESPTTPLLDDMDGSQDSPIFMYAPEFKFMPPPTYTEVDPCILNNNVQ
Turning to B1, the binding result in test [1] is given as “binds”.

B2: Recombinant TXNIP protein (protein, UniProt Q9H3M7 1-391)
chain: B1 chain
Consider B2, for which, in test [2], the binding result is on record as “binds”.

The record behind these values is paper PMC11705725.
